From publication doi:10.1101/2021.05.11.443650
Results are given in words; binding and its absence hold for the method and conditions named. In cells and extracts the contact can be indirect. Some entries that bind do so weakly or less than the wild type.

Sequences of proteins named here, by UniProt entry; tags and fusion partners are left off.
UniProt Q9JHG7: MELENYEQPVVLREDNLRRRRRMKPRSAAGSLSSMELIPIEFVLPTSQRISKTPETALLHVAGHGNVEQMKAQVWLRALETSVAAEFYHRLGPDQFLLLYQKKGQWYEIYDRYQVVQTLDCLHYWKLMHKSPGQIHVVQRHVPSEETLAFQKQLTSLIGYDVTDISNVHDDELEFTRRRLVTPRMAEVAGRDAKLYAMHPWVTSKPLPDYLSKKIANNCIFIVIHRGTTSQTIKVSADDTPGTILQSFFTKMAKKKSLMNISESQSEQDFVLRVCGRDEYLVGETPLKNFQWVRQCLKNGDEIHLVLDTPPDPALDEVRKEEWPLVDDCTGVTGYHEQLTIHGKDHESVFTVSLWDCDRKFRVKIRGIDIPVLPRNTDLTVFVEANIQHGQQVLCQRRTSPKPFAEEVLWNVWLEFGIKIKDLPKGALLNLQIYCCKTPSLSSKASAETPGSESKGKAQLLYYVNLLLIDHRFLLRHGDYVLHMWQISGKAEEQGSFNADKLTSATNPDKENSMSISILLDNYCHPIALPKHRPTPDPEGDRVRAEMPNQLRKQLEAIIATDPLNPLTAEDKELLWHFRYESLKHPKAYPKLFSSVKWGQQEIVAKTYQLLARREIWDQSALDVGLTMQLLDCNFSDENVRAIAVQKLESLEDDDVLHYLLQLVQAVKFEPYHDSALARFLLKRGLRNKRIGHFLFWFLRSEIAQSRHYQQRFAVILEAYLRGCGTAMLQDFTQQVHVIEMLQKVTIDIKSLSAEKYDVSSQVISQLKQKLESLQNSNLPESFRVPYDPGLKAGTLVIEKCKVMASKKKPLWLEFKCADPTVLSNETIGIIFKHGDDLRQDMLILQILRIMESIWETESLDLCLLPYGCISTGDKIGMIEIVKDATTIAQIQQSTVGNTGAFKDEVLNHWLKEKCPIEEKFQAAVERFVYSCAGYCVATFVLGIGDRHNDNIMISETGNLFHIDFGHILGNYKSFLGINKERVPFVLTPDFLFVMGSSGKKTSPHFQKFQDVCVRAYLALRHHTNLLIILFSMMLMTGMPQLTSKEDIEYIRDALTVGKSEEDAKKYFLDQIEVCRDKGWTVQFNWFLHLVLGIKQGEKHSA

Biological target: T1, phospholamban (mouse (endogenous in mouse heart)) (UniProt P61014)
T1 sequence: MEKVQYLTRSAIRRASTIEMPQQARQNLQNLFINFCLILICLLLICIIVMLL
Assay: co-IP

binding: binds
Substance: Phosphoinositide 3-kinase (PI3Kγ) (from UniProt Q9JHG7 1-1102) (enzyme)
